# Screen size: about 340,000 compounds; about 6,200 (1.8%) were called active. This list was built around the results that the source calls inconclusive (neither active nor inactive); the mix of calls is not that of the screen. Calls follow the shape of the dose curve; as a rule, active = well fitted activation curve with a large enough effect; inconclusive = small, poorly fitted or top-dose-only effect; inactive = no such curve, though single readings can be large or run the other way. Potencies beside an inconclusive call are fits to weak or partial responses and may not hold up.
# Test: A quantitative high throughput screen for small molecules that induce DNA re-replication in SW480 colon adenocarcinoma cells. Also: nearly all actives have a fitted effect of over 55% in size.
# Conditions: Hoechst DNA content imaging, 48 h; series mostly up to 46.1 µM
# Summary of the method: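 Compounds, transferred as 23 nL by pin tool, were incubated with cells for 48 hr; DNA content per nucleus was then quantified by Hoechst staining and fluorescence plate imaging.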
# Potency is read from the fitted curve at half-maximal effect.
row,Compound,Potency
1,CCCCCCCCCCCCOCCOCCOCCOCCOCCOCCOCCOCCOCCO,"inconclusive: 26.6 µM [activator, partial curve, poor fit]"
2,Clc1cc(Cl)cc(NC2=NCCS2)c1,inactive
3,O=C(c1cc2c(s1)-c1ccccc1OC2)N1CCC2(CC1)OCCO2,"inconclusive: 29.1 µM [activator, single point]"
4,C=CCn1c(O)c(N=Nc2c(C)n(C)n(-c3ccccc3)c2=O)c(=O)[nH]c1=S,"inconclusive: 0.82 µM [activator, partial curve, poor fit]"
5,O=C1CN(O)C(c2ccccc2)=c2cc(Br)ccc2=N1,inactive
6,O=c1ccc2c(O)c3ccoc3cc2o1,active: 0.184 µM
7,CC12CCC3C(CCC4CC(=O)CCC43C)C1CC(=NO)C2=O (stereo unspecified),"inconclusive: 25.9 µM [activator, single point]"
8,CSc1nc2ccccc2c(=O)n1-c1cccnc1,"inconclusive: 2.06 µM [activator, partial curve]"
9,O=C(/C=C/c1ccccc1)c1c(O)n(CCc2ccccc2)c(=O)[nH]c1=O,"inconclusive: 20.6 µM [activator, single point]"
10,CCC(=O)N1N=C(c2c(O)n(CCc3ccccc3)c(=O)[nH]c2=O)CC1c1ccc(OC)c(OC)c1 (stereo unspecified),"inconclusive: 29.1 µM [activator, single point]"
11,COc1ccc(NC(c2ccccc2)P(=O)(Oc2ccccc2)Oc2ccccc2)cc1 (stereo unspecified),inactive
12,CCOc1ccc(S(=O)(=O)N2CCC(C(=O)NCc3cccnc3)CC2)cc1Cl,"inconclusive: 29.1 µM [activator, single point]"
13,CC(C)N1CCN(Cc2cccc([N+](=O)[O-])c2)CC1,active: 1.84 µM
14,O=C1NC(=S)SC1=Cc1ccc(N(CCCl)CCCl)cc1,"inconclusive: 18.4 µM [activator, partial curve, poor fit]"
15,Cc1cc(OCC(=O)N2CCC(C(=O)O)(c3ccccc3)CC2)c2c(C)cc(=O)oc2c1,"inconclusive: 0.231 µM [activator, full curve, poor fit]"
16,COc1cc(Cn2c(N)c(C(=O)NCc3ccco3)c3nc4ccccc4nc32)cc(OC)c1OC,"inconclusive: 2.06 µM [activator, partial curve, poor fit]"
17,CC(=NNC(=S)N1CC2CCC(CC2)C1)c1nccs1,"inconclusive: 0.0015 µM [activator, full curve, poor fit]"
18,COC(=O)C1=C(c2ccc(-c3ccccc3)c(F)c2)C[C@@H]2CC[C@H]1N2C(=O)NCCOc1ccccc1,"inconclusive: 18.4 µM [activator, single point]"
19,COC(=O)Nc1ccc(N=C(N)N[N+](=O)[O-])cc1,inactive
20,CC(=O)N(C)C1=Nc2ccc(Cl)cc2C(c2ccccc2)=[N+]([O-])C1,inactive
21,O=C(Nc1ccc(F)c([N+](=O)[O-])c1)N1C[C@H]2C[C@@H](C1)c1cccc(=O)n1C2,inactive

# A different layout for part of the listing above.
row	Compound	Potency
1	CCCCCCCCCCCCOCCOCCOCCOCCOCCOCCOCCOCCOCCO	inconclusive: 26.6 µM [activator, partial curve, poor fit]
2	Clc1cc(Cl)cc(NC2=NCCS2)c1	inactive

# Remaining list, next part

row,Compound,Potency
1,Clc1ccc(CNCCc2ccc3c(c2)OCO3)cc1,inactive
2,CC(=O)N1Cc2cnnn2-c2ccccc2C1C#N (stereo unspecified),"inconclusive: 0.82 µM [activator, single point]"
3,c1ccc2nc(OCCN3CC3)ccc2c1,"inconclusive: 18.4 µM [activator, single point]"
4,CC(C)(C)OC(=O)c1c(N)n(Cc2ccco2)c2nc3ccccc3nc12,"inconclusive: 16.4 µM [activator, single point]"
5,O=C1NC(=O)C(=Cc2ccc(-c3ccccc3[N+](=O)[O-])o2)C(=O)N1,"inconclusive: 25.9 µM [activator, single point]"
6,Cc1cc(/C=C2\C(=O)NC(=O)N(C)C2=O)c(C)n1-c1ccc2c(c1)OCO2,"inconclusive: 0.0052 µM [activator, full curve, poor fit]"
7,CCCCCCn1c(O)c(C=NCCN2CCOCC2)c(=O)[nH]c1=O,"inconclusive: 29.1 µM [activator, partial curve, poor fit]"
8,CCN(c1ccccc1)S(=O)(=O)c1ccc(C(=O)NCC(c2ccccc2OC)N2CCCC2)cc1 (stereo unspecified),"inconclusive: 18.4 µM [activator, partial curve, poor fit]"
9,Cc1cccc(NC(=O)C(C)N2CC=C(c3ccccc3)CC2)c1 (stereo unspecified),"inconclusive: 29.1 µM [activator, single point]"
10,COc1ccc2c3c1O[C@H]1[C@@H](O)C=C[C@H]4C(C2)NCCC341 (stereo partly specified),inactive
11,O=C(Nc1nc2ccccc2n1CCN1CCCC1)c1ccc(Cl)cc1,"inconclusive: 29.1 µM [activator, single point]"
12,C=CCN1CCc2cccc3c2[C@H]1Cc1ccc(O)c(O)c1-3,"inconclusive: 20.6 µM [activator, single point]"
13,COC1/C=C/C=C(\C)Cc2cc(O)c(Cl)c(c2)N(C)C(=O)CC(OC(=O)C(C)C)C2(C)OC2C(C)C2CC1(O)NC(=O)O2 (stereo unspecified),"inconclusive: 0.0046 µM [activator, full curve, poor fit]"
14,CC1CCOC(=O)C=CC=CC(=O)OC2CC3OC4C5OC5(C)C(O)CC4(COC(=O)C1O)C2(C)C31CO1 (stereo unspecified),"inconclusive: 0.326 µM [activator, full curve]"
15,CC(C)CCNC(=O)c1c(N)n(CC2CCCO2)c2nc3ccccc3nc12 (stereo unspecified),active: 5.17 µM
16,CN(C)C1(CNC(=O)Nc2ccc(Cl)c(Cl)c2)CCCCC1,"inconclusive: 29.1 µM [activator, single point]"
17,CCC1(c2ccccc2)C(=O)NC(=O)N(C(=O)c2ccccc2)C1=O (stereo unspecified),inactive
18,COc1cc(C)c(-c2nc(CN3C[C@@H]4C[C@@H](C3)c3cccc(=O)n3C4)c(C)o2)cc1C,inactive
19,C[C@H]1C/C=C/[C@H]2[C@H](O)[C@H](C)[C@@](C)(O)[C@H]3[C@H](Cc4ccccc4)NC(=O)[C@]32[C@H](O)/C=C/[C@](C)(O)C1,"inconclusive: 32.6 µM [activator, single point]"
20,Cc1nc2ccccc2c(=O)n1-c1cccc(C(F)(F)F)c1,"inconclusive: 2.59 µM [activator, full curve, poor fit]"

# From PubChem BioAssay AID624297 (National Center for Advancing Translational Sciences (NCATS), 2012)
